Data taken from publication PMC4313936.
Residue numbers refer to the chain shown, from its start. Results are given in words; binding and its absence hold for the method and conditions named. In cells and extracts the contact can be indirect. Some entries that bind do so weakly or less than the wild type. Sequences can lack the tags named with a protein.

Amino acid sequences for entries named in this document (tags omitted).
UniProt Q13158: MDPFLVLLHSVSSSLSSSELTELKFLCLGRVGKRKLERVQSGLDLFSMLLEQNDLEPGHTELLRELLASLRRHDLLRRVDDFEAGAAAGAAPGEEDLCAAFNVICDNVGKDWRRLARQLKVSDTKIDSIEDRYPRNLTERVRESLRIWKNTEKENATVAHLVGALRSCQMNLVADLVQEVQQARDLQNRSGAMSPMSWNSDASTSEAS

Assays:
Flag-TRADD (human) = biological target: T1, Flag-TRADD (human) (UniProt Q15628); experiment: co-IP; Hek 293T cells co-transfected with Flag-TRADD and HA-FADD; 500 μg of cell extract on Flag-resin at 4°C; blot with HA-HRP or Flag-HRP
T1 sequence: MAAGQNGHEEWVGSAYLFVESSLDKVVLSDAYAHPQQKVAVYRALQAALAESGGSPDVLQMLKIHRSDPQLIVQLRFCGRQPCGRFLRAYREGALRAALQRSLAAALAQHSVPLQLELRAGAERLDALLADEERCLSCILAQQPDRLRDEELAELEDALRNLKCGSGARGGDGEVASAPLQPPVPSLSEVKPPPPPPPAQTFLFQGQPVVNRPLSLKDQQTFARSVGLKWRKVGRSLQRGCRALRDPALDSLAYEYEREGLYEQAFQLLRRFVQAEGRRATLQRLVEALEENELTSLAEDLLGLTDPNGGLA

Flag-TRADD K229A (human) = biological target: T2, Flag-TRADD K229A (human) (UniProt Q15628); experiment: as above
T2 sequence: T1 sequence with K229A

Flag-TRADD R231A (human) = biological target: T3, Flag-TRADD R231A (human) (UniProt Q15628); experiment: as above
T3 sequence: T1 sequence with R231A

Flag-TRADD R235A (human) = biological target: T4, Flag-TRADD R235A (human) (UniProt Q15628); experiment: as above
T4 sequence: T1 sequence with R235A

GST-TRADD (human) = biological target: T5, GST-TRADD (human) (UniProt Q15628); experiment: pull-down; GST-TRADD proteins on beads incubated with ^35S-Met-labeled FADD from reticulocyte lysate, as described in ref. 44; SDS-PAGE and autoradiography; only the target purified
T5 sequence: T1 sequence

GST-TRADD K229A (human) = biological target: T6, GST-TRADD K229A (human) (UniProt Q15628); experiment: as above
T6 sequence: T1 sequence with K229A

Measured: binding

HA-FADD (from UniProt Q13158 1-208)
binds: Flag-TRADD (human) | Flag-TRADD K229A (human) | Flag-TRADD R231A (human) | Flag-TRADD R235A (human)

^35S-Met-labeled FADD protein (from UniProt Q13158 1-208)
binds: GST-TRADD (human) | GST-TRADD K229A (human)
